Record: PubChem BioAssay AID1259308 (NCATS, 2017)

Screen: 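Knock-downs that increase output of a recombinant reporter protein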 (primary screen)
Cell system: human HEK293 embryonic kidney cells stably expressing firefly luciferase (HEK-CMV-Luc2-Hygro)
Reagent: single siRNA against human genes, 0.8 pmol siRNA per well
Timing: 72 h
Measurement: 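Luciferase light (ONE-Glo) measured on one replicate plate set and viability (CellTiter-Glo) on the other, scaled to a negative control siRNA, with robust z-scores and luciferase per cell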
Reading the numbers: total luciferase, z-score and total luciferase, % of control: higher = more reporter protein produced; luciferase per cell, z-score: higher = more reporter output per viable cell; viable cells, % of control: higher = more viable cells
Hit rule: 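An siRNA counts as active if its total luciferase robust z-score exceeds 3; genes with two or more such siRNAs out of three were retested with fresh siRNAs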
Meaning of the calls: active = raised luciferase; inactive = no rise
The whole screen tested about 59,000 reagents; below is a random part of them. In the full data, about 1,510 (2.6%) got an active call. 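Calls use total luciferase alone and ignore viability, so some active siRNAs may act by altering cell number.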 A number with no mark means an inactive call. The numbers tell different reagents against one gene apart. Reagent sequences are not shown.

| gene | reagent no. | total luciferase, z-score | total luciferase, % of control | luciferase per cell, z-score | viable cells, % of control |
| --- | --- | --- | --- | --- | --- |
| CCDC86 | 1 | -1.36 | 54.7 | -1.33 | 86.9 |
| CCDC86 | 2 | -0.0741 | 80.4 | -0.757 | 110 |
| CCDC86 | 3 | -0.766 | 66.7 | 0.116 | 72.3 |
| PLPP6 | 1 | 0.719 | 96.2 | 1.39 | 74.5 |
| PLPP6 | 2 | -0.246 | 77 | -0.218 | 91.1 |
| PLPP6 | 3 | 2.39 | 129 | 0.845 | 116 |
| SNAP29 | 1 | -0.988 | 62.2 | -0.658 | 82.7 |
| SNAP29 | 2 | -1.24 | 57.2 | -0.858 | 80.2 |
| SNAP29 | 3 | 0.902 | 99.8 | 1.06 | 84.4 |
| INSL5 | 1 | 1.07 | 103 | 1.1 | 86.4 |
| INSL5 | 2 | 1.89 | 119 | 2.09 | 76.9 |
| INSL5 | 3 | -1.17 | 58.6 | -1.8 | 105 |
| GNAL | 1 | 0.0778 | 83.4 | 0.128 | 90.1 |
| GNAL | 2 | -0.309 | 75.7 | -0.522 | 97.1 |
| GNAL | 3 | -1.14 | 59.1 | -1.41 | 95.8 |
| CAV2 | 1 | 1.86 | 119 | 1.28 | 94.9 |
| CAV2 | 2 | -2.1 | 40.2 | -3.18 | 104 |
| CAV2 | 3 | -0.156 | 78.8 | -0.275 | 94.6 |
| SMAD9 | 1 | -1.3 | 56 | -0.175 | 65.5 |
| SMAD9 | 2 | -0.992 | 62.2 | -0.92 | 88.5 |
| SMAD9 | 3 | -1.15 | 59.1 | -0.633 | 78 |
| CATSPER3 | 1 | 0.699 | 95.8 | 0.563 | 92.3 |
| CATSPER3 | 2 | 1.68 | 115 | 0.943 | 100 |
| CATSPER3 | 3 | -0.475 | 72.4 | -0.581 | 94.3 |

2 entries from above, sorted by “total luciferase, % of control”, highest first.
| gene | reagent no. | total luciferase, z-score | total luciferase, % of control | luciferase per cell, z-score | viable cells, % of control |
| --- | --- | --- | --- | --- | --- |
| SNAP29 | 3 | 0.902 | 99.8 | 1.06 | 84.4 |
| SNAP29 | 2 | -1.24 | 57.2 | -0.858 | 80.2 |
